The text below walks through data of article PMC10541190 (The Journal of Clinical Investigation, 2023).

This experiment relates to SARS-CoV-2 (USA-WA1/2020). In words: microbe, parasite or virus in culture. Type of experiment: cell-based. The note with it: Severe acute respiratory syndrome coronavirus 2, Vero, 24 h, read-out: SARS-CoV-2 EC50.

Regarding `O=C(CCCN1CCC2(CC1)C(=O)NCN2c1ccccc1)c1ccc(F)cc1` [Spiperone], the EC50 is 4.3 µM.
